This experiment concerns the target HIV-2 Rod9 Vpr, 3x FLAG-tagged (HIV-2 (isolate Rod9)) (UniProt P06938). The experiment in a line: co-IP; 3x-FLAG Vpr precipitated with anti-FLAG affinity beads from RIPA lysates of transiently transfected U2OS cells; blot for endogenous DCAF1.

Amino acid sequences for entries named in this document (tags omitted).
UniProt P06938: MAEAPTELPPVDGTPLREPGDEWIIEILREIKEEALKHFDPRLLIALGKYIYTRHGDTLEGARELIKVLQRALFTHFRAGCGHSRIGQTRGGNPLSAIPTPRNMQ
UniProt Q9Y4B6: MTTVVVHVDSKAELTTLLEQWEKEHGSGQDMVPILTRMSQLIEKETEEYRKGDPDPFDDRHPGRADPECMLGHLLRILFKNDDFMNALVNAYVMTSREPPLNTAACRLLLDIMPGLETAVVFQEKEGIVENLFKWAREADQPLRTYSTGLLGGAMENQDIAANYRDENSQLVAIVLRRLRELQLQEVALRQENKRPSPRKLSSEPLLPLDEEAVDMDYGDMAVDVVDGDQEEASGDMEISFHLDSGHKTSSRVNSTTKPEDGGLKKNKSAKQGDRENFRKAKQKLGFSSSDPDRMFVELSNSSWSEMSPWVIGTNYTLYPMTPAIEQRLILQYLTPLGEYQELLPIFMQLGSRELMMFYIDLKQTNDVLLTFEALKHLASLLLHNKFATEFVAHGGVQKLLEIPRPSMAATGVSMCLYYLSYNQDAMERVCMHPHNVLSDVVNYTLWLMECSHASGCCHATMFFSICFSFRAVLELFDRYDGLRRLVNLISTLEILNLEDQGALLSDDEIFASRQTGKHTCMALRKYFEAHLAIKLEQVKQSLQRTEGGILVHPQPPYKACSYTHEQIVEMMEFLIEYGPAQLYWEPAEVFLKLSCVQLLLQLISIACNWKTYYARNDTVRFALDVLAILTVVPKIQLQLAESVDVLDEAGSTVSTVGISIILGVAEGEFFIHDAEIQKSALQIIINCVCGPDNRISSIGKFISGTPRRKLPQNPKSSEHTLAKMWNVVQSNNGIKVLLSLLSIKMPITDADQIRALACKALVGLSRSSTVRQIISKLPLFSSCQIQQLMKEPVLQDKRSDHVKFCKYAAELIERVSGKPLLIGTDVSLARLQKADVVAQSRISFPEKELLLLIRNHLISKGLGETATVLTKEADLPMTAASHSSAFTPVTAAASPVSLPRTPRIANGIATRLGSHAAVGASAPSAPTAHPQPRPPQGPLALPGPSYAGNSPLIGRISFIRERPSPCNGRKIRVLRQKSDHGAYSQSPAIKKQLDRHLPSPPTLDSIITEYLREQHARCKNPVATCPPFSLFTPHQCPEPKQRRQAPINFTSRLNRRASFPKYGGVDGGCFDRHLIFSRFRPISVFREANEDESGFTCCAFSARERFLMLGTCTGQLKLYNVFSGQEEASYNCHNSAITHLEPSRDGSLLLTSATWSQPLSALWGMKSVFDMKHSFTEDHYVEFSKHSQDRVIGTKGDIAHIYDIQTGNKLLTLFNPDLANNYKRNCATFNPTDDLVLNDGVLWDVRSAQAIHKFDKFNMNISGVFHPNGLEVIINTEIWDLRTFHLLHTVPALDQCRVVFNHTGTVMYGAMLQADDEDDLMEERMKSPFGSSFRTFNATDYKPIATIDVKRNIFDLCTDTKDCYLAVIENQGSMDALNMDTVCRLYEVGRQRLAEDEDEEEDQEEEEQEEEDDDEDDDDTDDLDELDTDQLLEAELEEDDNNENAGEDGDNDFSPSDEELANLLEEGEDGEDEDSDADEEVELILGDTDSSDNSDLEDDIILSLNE

We go through one substance from paper PMC7407082.

These are yes or no findings as the source states them, for the method shown. In cells and extracts the contact can be indirect. Some entries that bind do so weakly or less than the wild type.

As for “DCAF1, endogenous human (from UniProt Q9Y4B6 1-1507)”, the binding entry is on record as “binds”.
